Source: PubChem BioAssay AID1347131 (National Center for Advancing Translational Sciences (NCATS), 2019)
Values joined by “and” are separate entries in the source; they are usually repeats but may differ in a detail not shown here. Equal entries are not always repeated. About 2,000 (0.49%) of roughly 410,000 compounds were called active. Inconclusive results, whose numbers are uncertain, are shown with a selection of clear calls. Calls follow the shape of the full dose curve; tested in HEK293 reporter line. Where the call is inconclusive, the potency comes from a doubtful curve fit.

Assay: qHTS Assay for Foot and Mouth Disease Virus Antivirals: Primary Screen against the MLPCN compound library; also: nearly all actives have a fitted effect of over 55% in size
Settings: FMDV antiviral cell-based qHTS; activity, negative = inhibition: at 57.9 µM (top of the series)
Potency is read from the fitted curve at half-maximal effect.

Compound	Potency	activity, negative = inhibition
COC(=O)C1=C(C)N(Cc2ccco2)C(=O)/C1=C\c1ccc([N+](=O)[O-])cc1	inconclusive: 22.4 µM [inhibitor, partial curve, poor fit]	–
CC(C)Cn1c(N)c(C(=O)COC(=O)c2ccc(Br)cc2)c(=O)n(C)c1=O	inconclusive: 31.6 µM [inhibitor, partial curve, poor fit]	–
O=S(=O)(c1cc(F)ccc1F)N1CCN(c2ncnc3ccccc23)CC1	inconclusive: 10 µM [inhibitor, partial curve, poor fit]	–
Cc1ccc(N(C)S(=O)(=O)c2cccc(C(=O)Nc3ccc(C)cn3)c2)cc1	inconclusive: 39.8 µM [inhibitor, partial curve, poor fit]	–
COc1ccc(CCNC(=O)c2ccc(CS(=O)(=O)Cc3cccc(C)c3)o2)cc1OC	inconclusive: 25.1 µM [inhibitor, partial curve, poor fit] and inconclusive: 39.8 µM [inhibitor, single point]	–
Cc1cc(C(=O)CSc2nc(N)cc(=O)[nH]2)c(C)n1CCc1ccc(F)cc1	inconclusive: 15.8 µM [inhibitor, partial curve, poor fit]	–
O=C(CN1C(=O)COc2ccccc21)N(Cc1cccnc1)Cc1ccccc1F	inconclusive: 7.94 µM [inhibitor, partial curve, poor fit]	–
CC(Oc1ccc(Cl)cc1Cl)c1nc(-c2ccc(NC(=O)c3cccnc3)cc2)no1 (stereo not given)	inconclusive: 28.2 µM [inhibitor, partial curve, poor fit]	–
C#CCNC(=O)C1=C[C@@H](c2ccc(C#C)cc2)[C@H](CCCO)[C@@H](OCC)O1	inconclusive: 1.12 µM [inhibitor, full curve]	–
Clc1ccc(COC(Cn2ccnc2)c2ccc(Cl)cc2Cl)cc1 (stereo not given)	inconclusive: 31.6 µM [inhibitor, partial curve, poor fit]	–
CO/N=C/c1ccc(N2CCN(C(=O)c3ccc(Cl)cc3Cl)CC2)c([N+](=O)[O-])c1	inconclusive: 12.6 µM [inhibitor, partial curve, poor fit]	–
CC(=O)c1ccc(NC(=O)c2cnn3ccccc23)cc1	inconclusive: 12.6 µM [inhibitor, single point]	–
CN(C)C=C1C(=O)N(C2CCCCC2)C(=O)N(C2CCCCC2)C1=O	inconclusive: 17.8 µM [inhibitor, partial curve, poor fit]	–
CCOC(=O)COc1ccc(Br)cc1/C=C\c1[nH]c(=O)[nH]c(=O)c1[N+](=O)[O-]	inconclusive: 35.5 µM [inhibitor, single point]	–
CCOC(=O)c1c(C)n(Cc2ccccc2)c2ccc(OCC(O)CNC(C)(C)C)cc12 (stereo not given)	inconclusive: 5.62 µM [inhibitor, partial curve]	–
COC(=O)N1C(=O)[C@](CC(C)C)(c2ccccc2)N1C(=O)OC	inconclusive: 35.5 µM [inhibitor, single point]	–
Cc1cccc(/C=C/c2onc(C)c2[N+](=O)[O-])n1	inconclusive: 14.1 µM [inhibitor, partial curve, poor fit]	–
CC(=O)c1c(C)[nH]c(C(=O)OCC(=O)Nc2ccc(C)cc2[N+](=O)[O-])c1C	inconclusive: 5.01 µM [inhibitor, partial curve, poor fit]	–
COc1ccc(OC)c(C(=O)CN2CCN(S(=O)(=O)c3ccc(Br)cc3)CC2)c1	–	inconclusive: -33% [inhibitor]
O=C(Cn1nnc(-c2cccs2)n1)NCc1ccco1	inconclusive: 2.51 µM [inhibitor, partial curve, poor fit]	–
CCCCC(NC(C)=O)c1nc2ccccc2n1CCC (stereo not given)	inconclusive: 20 µM [inhibitor, partial curve, poor fit]	–
CC(O)c1nc2c(c(=O)n(C)c(=O)n2C)n1C (stereo not given)	inconclusive: 5.62 µM [inhibitor, partial curve]	–
CC(C)(C)c1ccc(C(=O)Nc2cccc([N+](=O)[O-])c2)cc1	inconclusive: 39.8 µM [inhibitor, single point]	–
CCCCNc1c(-c2ccc(OC)c(SC3CCCCC3)c2)nc2ccc(C)cn12	inconclusive: 22.4 µM [inhibitor, partial curve, poor fit]	–
O=C(NCc1cccc(C(F)(F)F)c1)N1CCN(S(=O)(=O)c2ccccc2F)CC1	inconclusive: 14.1 µM [inhibitor, partial curve, poor fit]	–
CCn1cc(/C=C(\NC(=O)c2ccccc2F)C(=O)N2CCCC2)c2ccccc21	inconclusive: 11.2 µM [inhibitor, partial curve, poor fit]	–
Cc1ccc(C)c(NC(=O)C(=O)NCCc2csc3nc(-c4ccccc4C)nn23)c1	inconclusive: 22.4 µM [inhibitor, partial curve, poor fit]	–
c1ccc2sc(-c3ccc4c(c3)OCO4)nc2c1	inconclusive: 22.4 µM [inhibitor, single point]	–

Compound	Potency	activity, negative = inhibition
O=C1[C@H]2[C@@H](C(=O)N1c1cccc3ccccc13)C1(C(=O)c3ccccc3C1=O)N1CCC[C@@H]21	inconclusive: 31.6 µM [inhibitor, partial curve, poor fit]	–
COc1ccc(CN2CCN(C(=O)c3cc(C4CC4)nn3-c3ccccc3)CC2)cc1F	inconclusive: 2.51 µM [inhibitor, partial curve, poor fit]	–
CCOC(=O)CNc1nc(C(C)(C)C)nc2c1nnn2Cc1ccccc1Cl	inconclusive: 12.6 µM [inhibitor, partial curve]	–
Fc1ccc(N2CCN(c3ncnc4c3nc3n4CCCC3)CC2)cc1	inconclusive: 1.78 µM [inhibitor, full curve, poor fit]	–
CCc1ccc(/C=C2\SC(=S)N(CCCC(=O)NC3=NCCS3)C2=O)cc1	inconclusive: 14.1 µM [inhibitor, partial curve, poor fit]	–
COc1ccccc1NC(=O)c1c(N=Cc2cccc([N+](=O)[O-])c2)cnn1C	inactive	–
COc1cccc(NC(=O)Nc2ccc3c(c2)nc(C)n3C)c1	inconclusive: 11.2 µM [inhibitor, single point]	–
COc1ccc(C(=O)Nc2ccc3[nH]ccc3c2)cc1	inconclusive: 8.91 µM [inhibitor, partial curve, poor fit]	–
COc1ccc(C(=O)Nc2ccc(N3CCN(C(=O)c4ccccc4C)CC3)cc2)cc1	inactive	–
Cc1cc(-c2nnc(SCCC(=O)Nc3ccccc3)o2)no1	inconclusive: 39.8 µM [inhibitor, partial curve, poor fit]	–
O=C(CN1CCN(c2ccc(Cl)cc2)CC1)Nc1ccc(F)c(F)c1	inconclusive: 31.6 µM [inhibitor, partial curve, poor fit]	–
O=C(CN1C(=O)COc2ccccc21)N(Cc1cccnc1)Cc1cccc(F)c1	inconclusive: 20 µM [inhibitor, single point]	–
COc1ccc(Cl)cc1NC(=O)CCCS(=O)(=O)c1nc(-c2ccc(OC)c(OC)c2)cc(C(F)(F)F)n1	active: 28.2 µM	–
Cc1ccc(CNC(=O)c2cccc(OCc3c(C)noc3C)c2)cc1	inconclusive: 25.1 µM [inhibitor, partial curve, poor fit]	–
Cc1cc(C)nc(N2CCC(C(=O)N3CCN(c4cc(Cl)ccc4C)CC3)CC2)n1	inconclusive: 28.2 µM [inhibitor, partial curve, poor fit]	–
O=C(CSc1ccc(Cl)cc1)Nc1ccccc1N1CCN(C(=O)c2ccccc2)CC1	inconclusive: 12.6 µM [inhibitor, partial curve, poor fit]	–
O=[N+]([O-])c1c(Nc2ccccc2O)cc(Cl)c2nonc12	inconclusive: 10 µM [inhibitor, partial curve, poor fit]	–
CCOc1cc2[nH]c(=S)n(Cc3ccc(C(=O)NCCN(CC)CC)cc3)c(=O)c2cc1OCC	inconclusive: 7.94 µM [inhibitor, partial curve, poor fit]	–
O=S(=O)(c1ccc(Cl)cc1)N1CCc2ccccc21	inactive	–
COC(C/C=C/C(=O)[C@@H](C)OCc1ccccc1)OC	inconclusive: 39.8 µM [inhibitor, partial curve, poor fit]	–
CN1C/C(=C/c2ccccc2[N+](=O)[O-])C(=O)/C(=C\c2ccccc2[N+](=O)[O-])C1	inconclusive: 17.8 µM [inhibitor, partial curve, poor fit]	–
O=C(CCCc1ccccc1)NCCS(=O)(=O)N1CCN(c2ccccc2)CC1	inconclusive: 20 µM [inhibitor, partial curve, poor fit]	–
CCOC(=O)c1cnc(SCC(=O)Nc2cccc(OC)c2)nc1N	inconclusive: 17.8 µM [inhibitor, partial curve]	–
COc1cccc(C(=O)Nc2cccc(OCc3cc(=O)n4cccc(C)c4n3)c2)c1	inactive	–
COc1cc(Nc2nc3ccccc3nc2NS(=O)(=O)c2ccc([N+](=O)[O-])cc2)cc(OC)c1OC	inconclusive: 17.8 µM [inhibitor, partial curve]	–
COc1cc(NC(=O)C2=C(N3CCOCC3)/C(=C\c3ccc(Cl)cc3Cl)CC2)cc(OC)c1OC	inconclusive: 14.1 µM [inhibitor, partial curve, poor fit]	–
O=C(Nc1ccc(-c2csc(Nc3ccccc3)n2)cc1)c1cc([N+](=O)[O-])cc(C(F)(F)F)c1	inconclusive: 25.1 µM [inhibitor, partial curve, poor fit]	–

Fetched by structure from the entries so far, 3 records:
Compound	Potency	activity, negative = inhibition
COc1ccc(C(=O)Nc2ccc3[nH]ccc3c2)cc1	inconclusive: 8.91 µM [inhibitor, partial curve, poor fit]	–
O=C(NCc1cccc(C(F)(F)F)c1)N1CCN(S(=O)(=O)c2ccccc2F)CC1	inconclusive: 14.1 µM [inhibitor, partial curve, poor fit]	–
COc1cccc(C(=O)Nc2cccc(OCc3cc(=O)n4cccc(C)c4n3)c2)c1	inactive	–
